The target of assay [1] is SlMBP21 (tomato (Solanum lycopersicum)) (UniProt K4DEK0). As to the kind of experiment: two-hybrid; … GAL4 Two-Hybrid System III; baits in pGBKT7 in yeast Y2Hgold, preys in pGADT7 in yeast Y187; growth on QDO (SD lacking Trp, Leu, His, adenine) and blue colour on QDO/X (with X-alpha-Gal).
For assay [2], the target named is SlMADS1 (tomato (Solanum lycopersicum)) (UniProt Q7Y040). The description is as above.

By UniProt entry, the sequences of proteins in these tests, tags left out.
UniProt K4DEK0: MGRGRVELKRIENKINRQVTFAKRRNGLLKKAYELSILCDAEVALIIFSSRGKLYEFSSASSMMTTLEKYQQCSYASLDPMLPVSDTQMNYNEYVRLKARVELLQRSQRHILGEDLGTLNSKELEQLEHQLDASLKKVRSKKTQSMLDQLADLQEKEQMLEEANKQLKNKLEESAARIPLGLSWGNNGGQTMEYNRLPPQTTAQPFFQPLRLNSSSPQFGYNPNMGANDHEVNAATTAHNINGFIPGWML
UniProt Q7Y040: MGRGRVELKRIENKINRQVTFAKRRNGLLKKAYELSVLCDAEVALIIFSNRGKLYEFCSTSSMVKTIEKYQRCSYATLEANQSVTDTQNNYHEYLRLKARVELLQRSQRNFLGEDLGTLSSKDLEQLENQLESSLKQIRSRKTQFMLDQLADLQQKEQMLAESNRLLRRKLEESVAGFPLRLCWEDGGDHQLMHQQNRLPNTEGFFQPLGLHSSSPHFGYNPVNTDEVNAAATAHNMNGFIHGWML

Results are given in words; binding and its absence hold for the method and conditions named. For some assays here: Binding can be weak; no strength is given.

Consider “TAGL1 (TOMATO AGAMOUS-LIKE1) (from UniProt Q8H281)”, for which the binding result in assay [1] is listed as “binds”; in assay [2], “no binding”.

For the origin of these results see paper PMC10931843.
